Data taken from patent US20160272707A1.
Results are given in words; binding and its absence hold for the method and conditions named. Some results given as binding are weak or reduced against the parent protein; the word gives no strength. Blank lines part the entries; values can stand above or below the binder they belong to.

Sequences of proteins named here, by UniProt entry; tags and fusion partners are left off. Residues count along the entry.
UniProt A8MXK1, residues 29-147: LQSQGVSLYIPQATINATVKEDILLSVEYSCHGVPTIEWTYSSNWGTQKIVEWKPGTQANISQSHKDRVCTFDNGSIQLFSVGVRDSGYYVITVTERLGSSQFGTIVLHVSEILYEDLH

What was measured:
VSTM5 monomer [1] = molecular target: VSTM5 monomer (UniProt A8MXK1); assay: SPR, VSTM5 monomer binding to the IgG; binding seen, but complex kinetics gave no KD
[2] = molecular target: human VSTM5-EGFP (SEQ ID NO:133) expressed on HEK-293 cells (human); assay: FACS titration of the human IgG1 on 293-huVSTM5 cells, 293-MT control cells as open squares; y axis MFI (anti-Human A647)
[3] = molecular target: human VSTM5-EGFP (SEQ ID NO:133) expressed on HEK-293 cells (human); assay: FACS titration on 293-huVSTM5 cells (FIG. 30)
VSTM5 monomer [4] = molecular target: VSTM5 monomer (UniProt A8MXK1); assay: SPR (ProteOn XPR36), immobilised mAb, VSTM5 monomer 25 nM
VSTM5 monomer [5] = molecular target: VSTM5 monomer (UniProt A8MXK1); assay: SPR epitope binning, remark in the column 'Epitope Bin'

binding (VSTM5 monomer [1]): binds
binding [2]: binds
B1: 50-01.E02 (antibody, V domains shown)
VH: QVQLVESGGGVVQPGGSLKLSCVASGFTFSAYAMNWVRLVPGKGLEWVSGISGNGYSTFYPDSVQGRFTVSRDNSKNTLFLQIDRLTGGDTAIYYCAKVQTTVITPFQNWGQGTLVTVSS
VL: EIVLTQSPGTLSLSPGERATLSCRASQNIGSNFLAWYQQKPGQAPRLLIYGASTRANGIPDRFSGSKSETDFTLTISRLEPEDFAVYYCQQYDNSPYTFGQGTKLEIKR

binding [3]: binds
binding [2]: binds
B2: 52-01.A07 (antibody, V domains shown)
VH: EVQLVESGGGLVQPGRSLRLSCAASGFTFSSYAMHWVRQAPGKGLEWVAVISYDGSNKYYADSVKGRFTISRDNSKNTLYLQMNSLRAEDTAVYYCASKRELHSFDYWGQGTLVTVSS
VL: DVVMTQSPLSLPVTPGEPASISCRSSQSLLQSNGHNYLNWYLQKPGQSPQVLIYLASNRASGVPDRFSGSGSGTDFTLKISRVEAEDVGIYYCMQGLQIPLTFGGGTKVEIKR

binding (VSTM5 monomer [1]): binds
binding [2]: binds
binding (VSTM5 monomer [4]): binds
binding (VSTM5 monomer [5]): binds
B3: 50-01.F03 (antibody, V domains shown)
VH: EVQLVEIGGGLIQPGRSLRLSCAASGFTFSSYAMHWVRQAPGKGLEWVAVISYDGSKKYYADSVKGRFTISRDNSKNTVHLQMNSLRVEDTAVYYCALLSRPHYGLDVWGQGTTVTVSS
VL: QSVLTQPPSVSAAPGQKVTISCSGSRSNVGGNFLSWYQHVPGTPPQLLIYDNYKRPSEIPDRFSGSKSGTSATLDITGLQTGDEADYYCGTWDSSLSSWVFGGGTQLTVLG

binding [2]: binds
B4: 49-01.F05 (antibody, V domains shown)
VH: QVQLQQWGAGLLKPSETLSLTCAVYGGSFSGYYWSWIRQPPGKGLEWIGEINHSGSTNYNPSLKSRVTISVDTSKNQFSLKLSSVTAADTAVYYCARGWRGGSFMDVWGQGTTVTVSS
VL: QSALTQPRSVSGSPGQSVTISCTGTSSDVGGYNYVSWYQQHPGKAPKLMIYDVIKRPSGVPDRFSGSRSGNTASLTISGLQAEDEADYYCCSYAGTHWVFGGGTKLTVLG

binding [2]: binds
B5: 50-01.A04 (antibody, V domains shown)
VH: QVQLVQSGAEVKKPGESLKISCKGSGYDFNNYWIGWVRQTPEKGLEWMGIVYPGDHPGDYHIRYGPSFQGQVTISADRSITTAYLQWRNLKASDTAMYYCARLGSSKDLDYWGQGTLVTVSS
VL: EIVLTQSPATLSLSPGERATLSCRASQSVSGHLDWYQQKPGQSPRLLIYDASNRATGIPARFSGSGSGTDFSLTISSLEPEDFAVYYCQHRSNWPWTFGQGTKVEIKR

binding [2]: binds
B6: 50-01.D01 (antibody, V domains shown)
VH: QVQLVESGGGVVQPGRSRRLSCAASGFAFRNYGMHWVRQAPGKGLEWVAFISQNGGKKYYADSVTGRFTVSRDNSKNTLYLQINSLTTDDTAVFYCARSGSGSWGYSDFPGPFDHWGQGSLVTVSS
VL: EIVLTQSPGTLSLSPGERATLSCRASQNIFISFLAWYQQKPGQAPRLLLYGASNRATGIPDRFSGSGSGTDFTLTISRLEPEDFAVYYCQQYGSSPLTFGGGTKVEIKR

binding (VSTM5 monomer [4]): binds
binding (VSTM5 monomer [5]): binds
B7: 50-01.B01 (antibody, V domains shown)
VH: QVQLQESGPGLMKPSQTLSLTCTVSGDSITRGSSYWSWIRQSDGKGLEWIGHIYSGGDTDYNPALKSRVTISADASRGQFLLRLTSMTAADTAVYYCARDRGAYGMDVWGQGTTVTVSS
VL: QPVLTQSSSASASLGASVKLTCTLSSEHDRYAIAWLQQKPEKGPRYLMKVNSDGSHRKGDGIPDRFSGSSSGAERYLTISRLQSEDEADYYCQTWGIGIRVFGGGTQLTVLG

binding [2]: binds
B8: 49-01.D06 (antibody, V domains shown)
VH: QVQLVQSGAEVKKPGTSVKVSCKASGYTFTTYTMHWVRQAPGQRLEWMGWINTGNGNTKYSQKFQDRVTITRDTSASTAYMELSSLKFEDTAVYYCAREGVTIFGDHSYYYGMDVWGQGTTVTVSS
VL: QPVLTQSSSASASLGSSVKLTCTLSSGHSSYIIAWHQQQPGKAPRYLMKLEGSGSYNKGSGLPDRFSGSSSGADRYLTISNLQSEDEADYYCETWDGNTWVFGGGTQLTVLG

binding [2]: binds
B9: 49-02.C11 (antibody, V domains shown)
VH: EVQLVESGGGLVQPGGSLRLSCAASGFTFSSYAMTWVRQAPGKGLEWVSVISGGGGTTYYADSVKGRFTISRDNSKNTLYLQMSSLRAEDTAVYYCAKGYSSGWPYYFDYWGQGTLVTVSS
VL: EIVLTQSPGTLSLSPGERATLSCRASQSGVTNFLAWYQQKPGQAPRLLIYATSSRATGIPDRFSGSASGTDFTLTITRLEPEDFAVYFCQQYASSPLTFGGGTKVEIKR

binding [2]: binds
B10: 49-01.F01 (antibody, V domains shown)
VH: EVQLVESGGGVVKPGESLRLLCTASGLSFNKYSINWVRQAPGGGLEWVSSIESGSGHIYYADSLEGRFTISRDNAKNSVTLEMNSLRVEDTALYYCVSGPEDKWLLQLYFESWGQGTLVTVSS
VL: EIVLTQSPATLSLSPGERATLSCRTSQSSPSDNLAWYQHKPGQAPRLLIYGGSNRATGIPARFSGSGSGTDFTLTISSLEPEDFAVYYCQQYGSSPLTFGGGTKVDIKR

binding [2]: binds
B11: 47-01.D05 (antibody, V domains shown)
VH: QITLKESGPTLVKPTQTLTLTCTFSGFSLSTSGVGVGWIRQPPGKALEWLALIYWDDDKRYSPSLKSRLTITKDTSKNQVVLTMTNMDPVDTATYYCAHSGSVGYALYFDYWGQGTLVTVSS
VL: QAVLTQPPSSSASPGESARLTCTLPSDINVRYYNIYWYQQKPGSPPRYLLYYQSDSHKGRGSGVPSRFSGSKDTSANTGILLISGLQSEDEADYYCMIWASNGSGVLGGGTQLTVLG
